Experiment: general procedure: solution-phase peptide synthesis; CDI; EDC·HCl/HOBt/DIPEA; DCC/HOBt

| Substance | step yield (late stage modification step) [%] | step yield (coupling step) [%] | conjugation yield (conjugation step) |
| --- | --- | --- | --- |
| Acrylamido-AAPVA-RBB | >95 | – | – |
| Acrylamido-AAPVAA-RBB | >95 | – | – |
| Fmoc-AAAPM-RBB | – | >85 | – |
| Fmoc-AAPFA-RBB | – | −98 | – |
| Fmoc-AAPVA-RBB | – | −70 | ˜23% |
| Fmoc-AAPVAA-RBB | – | −58 | – |

Source: US12265082B2 (SYNOVO GMBH, priority 2016, dated 2025)
